Results deposited as PubChem BioAssay AID504784 (Drosophila RNAi Screening Center, 2011)

- Assay: 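Fly genes whose silencing alters how much lipid cells keep in droplets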 (primary screen)
- System: Drosophila Kc167 embryonic cells
- Reagent: long dsRNA against Drosophila genes, about 250 ng dsRNA per well
- Duration: 4 days
- Challenge: cells fed 400 µM oleic acid bound to BSA
- Read-out: 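Cells imaged and segmented; ratio of lipid droplet area to nuclear area, log-transformed, then normalised as a B-score over the screen; higher means more stored lipid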
- Scale: droplet/nuclear area B-score: higher = more stored lipid (overstorage)
The screen tested about 17,000 reagents; below is a random part of those with a known target gene and a result. 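Each column is one replicate's B-score; the combined score over replicates was not deposited, so single values may mislead.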 Further read-outs or replicates are left out here.

droplet/nuclear area B-score, replicate 1	Target gene	DRSC id
2.18	CG15439	DRSC00453
-2.28	gny	DRSC02810
-0.967	lmd	DRSC15618
-0.541	Eno	DRSC00750
0.545	CG15643	DRSC19679
-0.541	CG16758	DRSC07984
0.0225	CG16758	DRSC08492
1.96	Pburs	DRSC02483
-0.211	Clic	DRSC19364
0.122	CG13171	DRSC06299
-0.326	CG31050	DRSC13883
-0.0548	PGRP-LC	DRSC08980
2.94	PGRP-LC	DRSC10416
0.674	PGRP-LC	DRSC10417
1.57	CG13711	DRSC08320
3.3	RpS24	DRSC04414
-0.526	CdGAPr	DRSC03289
0.702	CG5756	DRSC06950
-0.185	Tsen2	DRSC01557
0.853	cactin	DRSC20576
0.115	pinta	DRSC14698
3.33	Cth	DRSC07422
-1.27	CG15599	DRSC19668
-0.213	Smyd4-1	DRSC06785
-0.971	para	DRSC20360
1.1	mRpL23	DRSC08307
1.05	CG2938	DRSC18243
-0.232	CG30273	DRSC22059
0.898	side-II	DRSC01913
-0.657	side-II	DRSC01932
-1.23	side-II	DRSC02480
-2.5	side-II	DRSC22508
0.0973	Ns1	DRSC15529
1.07	CG44085	DRSC02922
0.419	CG44085	DRSC23040
